Experimental data reported in publication PMC11822115.
No constants are given. Whether binding was seen depends on the method and setting. For some assays here: Binding seen in cells or lysates may run through a third protein. Some binding calls cover weakened binding; strength is not graded here.

The chains behind the UniProt entries cited, without tags or fusion partners. Residues count along the entry.
UniProt P08581, residues 25-1390: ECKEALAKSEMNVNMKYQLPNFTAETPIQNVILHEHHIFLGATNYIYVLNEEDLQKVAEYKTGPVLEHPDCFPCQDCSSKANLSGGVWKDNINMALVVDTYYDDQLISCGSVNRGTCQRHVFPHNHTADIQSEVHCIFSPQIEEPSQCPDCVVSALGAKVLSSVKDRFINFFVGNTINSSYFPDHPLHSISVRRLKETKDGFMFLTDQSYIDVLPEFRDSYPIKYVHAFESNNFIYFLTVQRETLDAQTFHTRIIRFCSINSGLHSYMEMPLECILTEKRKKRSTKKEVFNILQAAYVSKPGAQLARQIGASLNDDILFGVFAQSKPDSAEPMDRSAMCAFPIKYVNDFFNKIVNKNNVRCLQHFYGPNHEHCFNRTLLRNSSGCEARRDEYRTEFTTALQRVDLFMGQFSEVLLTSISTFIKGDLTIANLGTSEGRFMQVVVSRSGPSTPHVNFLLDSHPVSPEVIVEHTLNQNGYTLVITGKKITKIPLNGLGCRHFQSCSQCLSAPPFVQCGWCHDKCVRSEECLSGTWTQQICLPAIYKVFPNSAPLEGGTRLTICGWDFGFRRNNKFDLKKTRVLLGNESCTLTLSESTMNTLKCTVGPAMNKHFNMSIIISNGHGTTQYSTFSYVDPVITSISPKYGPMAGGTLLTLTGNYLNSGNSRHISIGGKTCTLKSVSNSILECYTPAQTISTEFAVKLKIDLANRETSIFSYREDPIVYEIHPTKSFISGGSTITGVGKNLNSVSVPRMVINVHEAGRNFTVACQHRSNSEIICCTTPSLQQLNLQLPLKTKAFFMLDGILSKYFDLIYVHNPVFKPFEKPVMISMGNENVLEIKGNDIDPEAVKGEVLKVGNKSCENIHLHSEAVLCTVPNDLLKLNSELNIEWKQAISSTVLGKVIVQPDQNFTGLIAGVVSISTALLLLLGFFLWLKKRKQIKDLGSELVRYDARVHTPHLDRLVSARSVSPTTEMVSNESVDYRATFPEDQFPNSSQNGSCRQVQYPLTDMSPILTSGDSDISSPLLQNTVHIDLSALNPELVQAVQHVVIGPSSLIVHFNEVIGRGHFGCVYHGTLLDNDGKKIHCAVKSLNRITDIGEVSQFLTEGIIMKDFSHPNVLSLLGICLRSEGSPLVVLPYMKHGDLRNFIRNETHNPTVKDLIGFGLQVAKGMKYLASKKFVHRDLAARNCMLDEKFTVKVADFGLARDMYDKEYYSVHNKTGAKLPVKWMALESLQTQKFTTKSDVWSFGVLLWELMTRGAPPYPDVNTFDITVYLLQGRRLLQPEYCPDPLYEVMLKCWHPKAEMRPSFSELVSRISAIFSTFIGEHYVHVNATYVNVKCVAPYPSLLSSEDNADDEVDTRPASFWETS
UniProt P21860, residues 20-1342: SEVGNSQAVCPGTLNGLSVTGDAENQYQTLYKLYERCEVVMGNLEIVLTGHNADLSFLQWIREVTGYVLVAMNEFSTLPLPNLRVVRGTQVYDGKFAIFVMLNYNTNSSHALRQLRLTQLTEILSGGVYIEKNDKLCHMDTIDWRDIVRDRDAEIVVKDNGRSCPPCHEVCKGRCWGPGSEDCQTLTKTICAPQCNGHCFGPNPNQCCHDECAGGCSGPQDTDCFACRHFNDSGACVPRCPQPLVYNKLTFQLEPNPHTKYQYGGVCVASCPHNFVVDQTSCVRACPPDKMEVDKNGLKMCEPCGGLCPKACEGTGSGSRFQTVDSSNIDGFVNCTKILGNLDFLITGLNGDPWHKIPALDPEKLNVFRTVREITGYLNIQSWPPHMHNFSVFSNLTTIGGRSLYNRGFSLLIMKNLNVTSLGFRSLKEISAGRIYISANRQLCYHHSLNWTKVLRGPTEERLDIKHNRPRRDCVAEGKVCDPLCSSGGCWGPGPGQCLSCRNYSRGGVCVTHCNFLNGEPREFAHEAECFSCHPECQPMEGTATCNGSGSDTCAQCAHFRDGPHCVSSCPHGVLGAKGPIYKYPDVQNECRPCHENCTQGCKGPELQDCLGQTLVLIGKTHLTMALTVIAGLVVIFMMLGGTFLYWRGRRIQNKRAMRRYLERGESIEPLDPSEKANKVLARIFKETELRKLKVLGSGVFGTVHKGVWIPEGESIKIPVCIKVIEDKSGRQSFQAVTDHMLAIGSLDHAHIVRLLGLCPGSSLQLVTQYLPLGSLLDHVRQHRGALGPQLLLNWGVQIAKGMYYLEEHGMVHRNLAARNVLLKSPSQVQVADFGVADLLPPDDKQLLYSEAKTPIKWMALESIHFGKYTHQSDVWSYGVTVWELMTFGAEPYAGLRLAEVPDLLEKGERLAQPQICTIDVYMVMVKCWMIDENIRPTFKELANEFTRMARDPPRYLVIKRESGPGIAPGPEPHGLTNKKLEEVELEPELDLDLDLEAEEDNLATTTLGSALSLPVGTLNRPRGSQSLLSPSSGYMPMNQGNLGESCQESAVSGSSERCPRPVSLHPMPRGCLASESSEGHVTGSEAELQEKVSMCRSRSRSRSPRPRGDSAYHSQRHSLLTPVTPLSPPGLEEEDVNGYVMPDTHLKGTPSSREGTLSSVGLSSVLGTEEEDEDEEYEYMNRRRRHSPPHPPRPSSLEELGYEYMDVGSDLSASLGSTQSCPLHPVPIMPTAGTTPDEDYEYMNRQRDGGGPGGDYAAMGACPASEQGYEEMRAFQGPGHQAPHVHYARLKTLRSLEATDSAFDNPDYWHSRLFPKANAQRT

T1: D1SP (human) (UniProt Q9Y4D7)
T1 sequence: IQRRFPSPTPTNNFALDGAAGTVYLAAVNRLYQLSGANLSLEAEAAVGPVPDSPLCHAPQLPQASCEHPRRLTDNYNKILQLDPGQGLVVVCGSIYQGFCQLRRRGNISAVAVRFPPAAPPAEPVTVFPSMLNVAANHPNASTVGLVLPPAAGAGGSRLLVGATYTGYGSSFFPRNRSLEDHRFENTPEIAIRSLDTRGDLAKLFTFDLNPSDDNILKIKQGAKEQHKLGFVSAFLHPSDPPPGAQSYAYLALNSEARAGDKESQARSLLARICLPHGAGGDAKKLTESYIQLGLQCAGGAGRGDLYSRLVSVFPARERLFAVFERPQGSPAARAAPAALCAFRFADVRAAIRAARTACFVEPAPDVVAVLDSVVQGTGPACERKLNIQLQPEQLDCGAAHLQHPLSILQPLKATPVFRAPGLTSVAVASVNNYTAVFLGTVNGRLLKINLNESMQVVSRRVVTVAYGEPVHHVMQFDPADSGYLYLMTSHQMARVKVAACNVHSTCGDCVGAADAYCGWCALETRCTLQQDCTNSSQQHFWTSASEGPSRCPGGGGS


Columns and labels:
[1] = target: PlexinD1 (human (endogenous in LNCaP, C4-2B^ENZR, 22Rv1)) (UniProt Q9Y4D7); test: proximity ligation; endogenous proteins in fixed cells (LNCaP and C4-2B^ENZR); pairs of primary antibodies, Duolink In Situ Red kit; cytoplasmic fluorescence per cell; for PlexinD1-ErbB3/cMet C4-2B^ENZR cells also treated with recombinant Sema3E/Sema3C (200-500 ng/ml, 4 h) or SEMA3E/SEMA3C siRNA (10 uM, 48 h)
[2] = target: PlexinD1 (human (endogenous in LNCaP, C4-2B^ENZR, 22Rv1)) (UniProt Q9Y4D7); test: proximity ligation; endogenous proteins in fixed 22Rv1 (and C4-2B^ENZR) cells treated with D1SP (1 uM, 2 h) or PBS as vehicle; Duolink In Situ Red kit; cytoplasmic fluorescence per cell
[3] = target: PlexinD1 (human (endogenous in LNCaP, C4-2B^ENZR, 22Rv1)) (UniProt Q9Y4D7); test: co-IP; 22Rv1 lysate (1 mg total protein), PlexinD1 antibody or control IgG at 4 C overnight, Protein G magnetic beads, blots for PlexinD1, ErbB3, cMet
D1SP (human) = target: T1, D1SP (human); test: co-IP; 10 ug of recombinant PlexinD1, Sema3C or Sema3E with 10 ug D1SP in IP buffer, 4 C, 4 h; Fc-antibody bound beads; blots for PlexinD1, Sema3C or Sema3E; both purified
[4] = target: PlexinD1 (human (endogenous in LNCaP, C4-2B^ENZR, 22Rv1)) (UniProt Q9Y4D7); test: proximity ligation; endogenous proteins in fixed cells (LNCaP and C4-2B^ENZR); pairs of primary antibodies, Duolink In Situ Red kit; cytoplasmic fluorescence per cell; for PlexinD1-ErbB3/cMet C4-2B^ENZR cells also treated with recombinant Sema3E/Sema3C (200-500 ng/ml, 4 h) or SEMA3E/SEMA3C siRNA (10 uM, 48 h); remark: listed apart in the source
[5] = target: PlexinD1 (human (endogenous in LNCaP, C4-2B^ENZR, 22Rv1)) (UniProt Q9Y4D7); test: proximity ligation; endogenous proteins in fixed 22Rv1 (and C4-2B^ENZR) cells treated with D1SP (1 uM, 2 h) or PBS as vehicle; Duolink In Situ Red kit; cytoplasmic fluorescence per cell; remark: listed apart in the source

| binding [1] | binding [2] | binding [3] | binding (D1SP (human)) | Molecule | other results |
| --- | --- | --- | --- | --- | --- |
| binds | binds | binds | – | cMet (from UniProt P08581 25-1390) (receptor) | – |
| binds | binds | binds | – | ErbB3 (from UniProt P21860 20-1342) (receptor) | – |
| – | – | – | binds | Recombinant human PlexinD1 protein (receptor, UniProt Q9Y4D7 47-1271) LEIQRRFPSPTPTNNFALDGAAGTVYLAAVNRLYQLSGANLSLEAEAAVGPVPDSPLCHAPQLPQASCEHPRRLTDNYNKILQLDPGQGLVVVCGSIYQGFCQLRRRGNISAVAVRFPPAAPPAEPVTVFPSMLNVAANHPNASTVGLVLPPAAGAGGSRLLVGATYTGYGSSFFPRNRSLEDHRFENTPEIAIRSLDTRGDLAKLFTFDLNPSDDNILKIKQGAKEQHKLGFVSAFLHPSDPPPGAQSYAYLALNSEARAGDKESQARSLLARICLPHGAGGDAKKLTESYIQLGLQCAGGAGRGDLYSRLVSVFPARERLFAVFERPQGSPAARAAPAALCAFRFADVRAAIRAARTACFVEPAPDVVAVLDSVVQGTGPACERKLNIQLQPEQLDCGAAHLQHPLSILQPLKATPVFRAPGLTSVAVASVNNYTAVFLGTVNGRLLKINLNESMQVVSRRVVTVAYGEPVHHVMQFDPADSGYLYLMTSHQMARVKVAACNVHSTCGDCVGAADAYCGWCALETRCTLQQDCTNSSQQHFWTSASEGPSRCPAMTVLPSEIDVRQEYPGMILQISGSLPSLSGMEMACDYGNNIRTVARVPGPAFGHQIAYCNLLPRDQFPPFPPNQDHVTVEMSVRVNGRNIVKANFTIYDCSRTAQVYPHTACTSCLSAQWPCFWCSQQHSCVSNQSRCEASPNPTSPQDCPRTLLSPLAPVPTGGSQNILVPLANTAFFQGAALECSFGLEEIFEAVWVNESVVRCDQVVLHTTRKSQVFPLSLQLKGRPARFLDSPEPMTVMVYNCAMGSPDCSQCLGREDLGHLCMWSDGCRLRGPLQPMAGTCPAPEIHAIEPLSGPLDGGTLLTIRGRNLGRRLSDVAHGVWIGGVACEPLPDRYTVSEEIVCVTGPAPGPLSGVVTVNASKEGKSRDRFSYVLPLVHSLEPTMGPKAGGTRITIHGNDLHVGSELQVLVNDTDPCTELMRTDTSIACTMPEGALPAPVPVCVRFERRGCVHGNLTFWYMQNPVITAISPRRSPVSGGRTITVAGERFHMVQNVSMAVHHIGREPTLCKVLNSTLITCPSPGALSNASAPVDFFINGRAYADEVAVAEELLDPEEAQRGSRFRLDYLPNPQFSTAKREKWIKHHPGEPLTLVIHKEQDSLGLQSHEYRVKIGQVSCDIQIVSDRIIHCSVNESLGAAVGQLPITIQVGNFNQTIATLQLGGSETA | – |
| – | – | – | – | Sema3E (ligand, UniProt O15041 26-775) ADTTHPRLRLSHKELLNLNRTSIFHSPFGFLDLHTMLLDEYQERLFVGGRDLVYSLSLERISDGYKEIHWPSTALKMEECIMKGKDAGECANYVRVLHHYNRTHLLTCGTGAFDPVCAFIRVGYHLEDPLFHLESPRSERGRGRCPFDPSSSFISTLIGSELFAGLYSDYWSRDAAIFRSMGRLAHIRTEHDDERLLKEPKFVGSYMIPDNEDRDDNKVYFFFTEKALEAENNAHAIYTRVGRLCVNDVGGQRILVNKWSTFLKARLVCSVPGMNGIDTYFDELEDVFLLPTRDHKNPVIFGLFNTTSNIFRGHAICVYHMSSIRAAFNGPYAHKEGPEYHWSVYEGKVPYPRPGSCASKVNGGRYGTTKDYPDDAIRFARSHPLMYQAIKPAHKKPILVKTDGKYNLKQIAVDRVEAEDGQYDVLFIGTDNGIVLKVITIYNQEMESMEEVILEELQIFKDPVPIISMEISSKRQQLYIGSASAVAQVRFHHCDMYGSACADCCLARDPYCAWDGISCSRYYPTGTHAKRRFRRQDVRHGNAAQQCFGQQFVGDALDKTEEHLAYGIENNSTLLECTPRSLQAKVIWFVQKGRETRKEEVKTDDRVVKMDLGLLFLRLHKSDAGTYFCQTVEHSFVHTVRKITLEVVEEEKVEDMFNKDDEEDRHHRMPCPAQSSISQGAKPWYKEFLQLIGYSNFQRVEEYCEKVWCTDRKRKKLKMSPSKWKYANPQEKKLRSKPEHYRLPRHTLDS | binding [4]: binds; binding [5]: binds |
| – | – | – | binds | Recombinant human Sema3E protein (ligand, UniProt O15041 26-775) ADTTHPRLRLSHKELLNLNRTSIFHSPFGFLDLHTMLLDEYQERLFVGGRDLVYSLSLERISDGYKEIHWPSTALKMEECIMKGKDAGECANYVRVLHHYNRTHLLTCGTGAFDPVCAFIRVGYHLEDPLFHLESPRSERGRGRCPFDPSSSFISTLIGSELFAGLYSDYWSRDAAIFRSMGRLAHIRTEHDDERLLKEPKFVGSYMIPDNEDRDDNKVYFFFTEKALEAENNAHAIYTRVGRLCVNDVGGQRILVNKWSTFLKARLVCSVPGMNGIDTYFDELEDVFLLPTRDHKNPVIFGLFNTTSNIFRGHAICVYHMSSIRAAFNGPYAHKEGPEYHWSVYEGKVPYPRPGSCASKVNGGRYGTTKDYPDDAIRFARSHPLMYQAIKPAHKKPILVKTDGKYNLKQIAVDRVEAEDGQYDVLFIGTDNGIVLKVITIYNQEMESMEEVILEELQIFKDPVPIISMEISSKRQQLYIGSASAVAQVRFHHCDMYGSACADCCLARDPYCAWDGISCSRYYPTGTHAKRRFRRQDVRHGNAAQQCFGQQFVGDALDKTEEHLAYGIENNSTLLECTPRSLQAKVIWFVQKGRETRKEEVKTDDRVVKMDLGLLFLRLHKSDAGTYFCQTVEHSFVHTVRKITLEVVEEEKVEDMFNKDDEEDRHHRMPCPAQSSISQGAKPWYKEFLQLIGYSNFQRVEEYCEKVWCTDRKRKKLKMSPSKWKYANPQEKKLRSKPEHYRLPRHTLDS | – |
| – | – | – | binds | Recombinant human Sema3C protein (ligand, UniProt Q99985 21-751) GSSQPQARVYLTFDELRETKTSEYFSLSHHPLDYRILLMDEDQDRIYVGSKDHILSLNINNISQEALSVFWPASTIKVEECKMAGKDPTHGCGNFVRVIQTFNRTHLYVCGSGAFSPVCTYLNRGRRSEDQVFMIDSKCESGKGRCSFNPNVNTVSVMINEELFSGMYIDFMGTDAAIFRSLTKRNAVRTDQHNSKWLSEPMFVDAHVIPDGTDPNDAKVYFFFKEKLTDNNRSTKQIHSMIARICPNDTGGLRSLVNKWTTFLKARLVCSVTDEDGPETHFDELEDVFLLETDNPRTTLVYGIFTTSSSVFKGSAVCVYHLSDIQTVFNGPFAHKEGPNHQLISYQGRIPYPRPGTCPGGAFTPNMRTTKEFPDDVVTFIRNHPLMYNSIYPIHKRPLIVRIGTDYKYTKIAVDRVNAADGRYHVLFLGTDRGTVQKVVVLPTNNSVSGELILEELEVFKNHAPITTMKISSKKQQLYVSSNEGVSQVSLHRCHIYGTACADCCLARDPYCAWDGHSCSRFYPTGKRRSRRQDVRHGNPLTQCRGFNLKAYRNAAEIVQYGVKNNTTFLECAPKSPQASIKWLLQKDKDRRKEVKLNERIIATSQGLLIRSVQGSDQGLYHCIATENSFKQTIAKINFKVLDSEMVAVVTDKWSPWTWASSVRALPFHPKDIMGAFSHSEMQMINQYCKDTRQQHQQGDESQKMRGDYGKLKALINSRKSRNRRNQLPES | – |
